According to the supplement of paper PMC10470496:
Where a name gives a salt, the structure may show the parent alone. Some of the results follow. Single values are uncertain, as repeats are few or missing.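 The strains were three CDC resistance-bank clinical C. auris isolates from clades III, IV and I, cultured in RPMI-1640 at 35°C. Growth was background-corrected OD600 versus vehicle-only wells on the same plate. A hit needed >50% inhibition in two or more strains plus a plate-corrected B-score exceeding 0.1.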

Key:
Experiment in all cases: growth relative to vehicle control (OD600 ratio) (fraction); higher = less inhibition
Conditions in all cases: 24 h
[1] = system: C. auris AR-384
[2] = system: C. auris AR-386
[3] = system: C. auris AR-387

Row | SMILES | growth ([1]; 1 µM) | growth ([1]; 10 µM) | growth ([2]; 1 µM) | growth ([2]; 10 µM) | growth ([3]; 1 µM) | growth ([3]; 10 µM)
1 | COC(=O)C1=C(C)NC(C)=C(C(=O)OCCN(C)Cc2ccccc2)C1c1cccc([N+](=O)[O-])c1 (centres undefined) [Nicardipine HCl] | 0.85 | 1.04 | 1.11 | 1.34 | 0.94 | 1.22
2 | COC(=O)[C@H](Cc1ccccc1)NC(=O)[C@@H](N)CC(=O)O [Aspartame] | 0.76 | 0.93 | 0.7 | 0.65 | 0.92 | 0.63
3 | CCC[C@H](NC(=O)[C@@H]1[C@H]2CCC[C@H]2CN1C(=O)[C@@H](NC(=O)[C@@H](NC(=O)c1cnccn1)C1CCCCC1)C(C)(C)C)C(=O)C(=O)NC1CC1 [Telaprevir (VX-950)] | 1.14 | 0.77 | 1.14 | 1.11 | 0.81 | 0.98
4 | C[C@]12CC[C@@H]3c4ccc(O)cc4C[C@@H](CCCCCCCCC[S+]([O-])CCCC(F)(F)C(F)(F)F)[C@H]3[C@@H]1CC[C@@H]2O (some centres undefined) [Fulvestrant] | 1.09 | 0.93 | 0.6 | 0.92 | 1.03 | 0.91
5 | Nc1nc(F)nc2c1ncn2[C@@H]1O[C@H](COP(=O)(O)O)[C@@H](O)[C@@H]1O [Fludarabine Phosphate] | 1.12 | 0.91 | 0.82 | 0.87 | 0.98 | 0.82
6 | NC(N)=O | 0.86 | 0.75 | 0.89 | 0.72 | 0.9 | 0.86
7 | CC(=O)OCC(=O)NCCCOc1cccc(CN2CCCCC2)c1 [Roxatidine Acetate HCl] | 0.92 | 0.8 | 0.97 | 0.68 | 0.63 | 0.58
8 | N[C@@H](Cc1cc(I)c(Oc2ccc(O)c(I)c2)c(I)c1)C(=O)O [Liothyronine Sodium] | 1.19 | 1.28 | 1.37 | 1.03 | 1.47 | 1.17
9 | CCOC(=O)Nc1ccc(NCc2ccc(F)cc2)nc1N [Flupirtine maleate] | 1.1 | 0.74 | 0.8 | 0.86 | 1.16 | 0.95
10 | O=C(NC(Cc1cc(=O)[nH]c2ccccc12)C(=O)O)c1ccc(Cl)cc1 (centres undefined) [Rebamipide] | 1.03 | 0.73 | 0.78 | 1.18 | 0.7 | 0.8
11 | Cc1cc(N2CCN([C@@H]3CN[C@H](C(=O)N4CCSC4)C3)CC2)n(-c2ccccc2)n1 [Teneligliptin hydrobromide] | 1.21 | 0.97 | 1.04 | 0.99 | 0.93 | 1
12 | CC(C(=O)O)c1cccc(Oc2ccccc2)c1 (centres undefined) [Fenoprofen Calcium] | 1.17 | 1.07 | 1.16 | 1.16 | 1 | 0.99
13 | CC[C@H]1OC(=O)[C@H](C)[C@@H](O[C@H]2C[C@@](C)(OC)[C@@H](O)[C@H](C)O2)[C@H](C)[C@@H](O[C@@H]2O[C@H](C)C[C@H](N(C)C)[C@H]2O)[C@](C)(O)C[C@@H](C)[C@@H]2N[C@@H](COCCOC)O[C@H]([C@H]2C)[C@]1(C)O [Dirithromycin] | 0.99 | 1.07 | 1 | 0.85 | 1.01 | 0.97
14 | O=C(O)c1cn(-c2ccc(F)cc2)c2cc(N3CCNCC3)c(F)cc2c1=O [Sarafloxacin HCl] | 0.96 | 0.67 | 0.9 | 1 | 0.93 | 0.75
15 | C=C1CC[C@H](O)C/C1=C/C=C1\CCC[C@]2(C)[C@@H]([C@H](C)CCCC(C)(C)O)CC[C@@H]12 [Calcifediol] | 1.07 | 0.64 | 0.95 | 1.02 | 0.92 | 0.8
16 | O=c1n(CCCN2CCN(c3cccc(Cl)c3)CC2)nc2ccccn12 [Trazodone HCl] | 0.93 | 1.13 | 1.17 | 1.41 | 1.54 | 1.32
17 | CC1(C)CCC(C)(C)c2cc(NC(=O)c3ccc(C(=O)O)cc3)ccc21 [Tamibarotene] | 0.85 | 1.1 | 0.83 | 1.03 | 1.15 | 0.91
18 | CC(C)(C)c1cc(C(C)(C)C)c(NC(=O)c2c[nH]c3ccccc3c2=O)cc1O [Ivacaftor (VX-770)] | 1.04 | 1.13 | 1.33 | 1.08 | 1.29 | 1.28
19 | CC(C)c1cc(C(=O)N2Cc3ccc(CN4CCN(C)CC4)cc3C2)c(O)cc1O | 1.25 | 0.89 | 1.3 | 1.59 | 1.45 | 1.48
20 | CCCS(=O)(=O)Nc1ccc(F)c(C(=O)c2c[nH]c3ncc(-c4ccc(Cl)cc4)cc23)c1F [Vemurafenib (PLX4032, RG7204)] | 0.96 | 0.69 | 0.98 | 1.14 | 0.79 | 0.91
21 | CCCCNc1cc(C(=O)O)cc(S(N)(=O)=O)c1Oc1ccccc1 [Bumetanide] | 0.97 | 1.07 | 1.14 | 1.05 | 1.08 | 1.23
22 | N#Cc1ccc2[nH]cc(CCCCN3CCN(c4ccc5oc(C(N)=O)cc5c4)CC3)c2c1 [Vilazodone HCl] | 1.1 | 0.9 | 0.89 | 0.94 | 0.9 | 0.95
23 | CN1CCC(=C2c3ccccc3C=Cc3ccccc32)CC1 [Cyproheptadine hydrochloride] | 0.75 | 0.72 | 1.14 | 0.68 | 1 | 0.75
24 | OC(CNCC(O)C1CCc2cc(F)ccc2O1)C1CCc2cc(F)ccc2O1 (centres undefined) [Nebivolol HCl] | 1.28 | 1.19 | 1.49 | 1.08 | 1.17 | 1.1

Pulled by structure from above (2):
Row | SMILES | growth ([1]; 1 µM) | growth ([1]; 10 µM) | growth ([2]; 1 µM) | growth ([2]; 10 µM) | growth ([3]; 1 µM) | growth ([3]; 10 µM)
15 | C=C1CC[C@H](O)C/C1=C/C=C1\CCC[C@]2(C)[C@@H]([C@H](C)CCCC(C)(C)O)CC[C@@H]12 [Calcifediol] | 1.07 | 0.64 | 0.95 | 1.02 | 0.92 | 0.8
16 | O=c1n(CCCN2CCN(c3cccc(Cl)c3)CC2)nc2ccccn12 [Trazodone HCl] | 0.93 | 1.13 | 1.17 | 1.41 | 1.54 | 1.32
